{"source": "PubChem BioAssay AID540276", "about": "(National Center for Advancing Translational Sciences (NCATS), 2011)", "note": "Several values for one entry are separate records, joined by “and”; a condition that tells them apart may be missing. Equal entries are not always repeated. Screen size: about 300,000 compounds; about 5,400 (1.8%) were called active. Inconclusive means that the source gave no clear call. Such entries were picked first, then a sample of the others. Calls come from the whole dose curve; tested in HEK293 cells. Where the call is inconclusive, the potency comes from a doubtful curve fit. Potency is the fitted concentration of half-maximal effect.", "data": [{"test": "qHTS for inhibitors of binding or entry into cells for Marburg Virus", "conditions": "Marburg virus pseudotyped entry inhibition, cell reporter; series mostly up to 37.8 µM", "values": [{"smiles": "Cc1sc(N/N=C/c2cccnc2)nc1-c1ccc(Cl)cc1", "Potency": "inconclusive: 25.9 µM [inhibitor, partial curve, poor fit]"}, {"smiles": "COc1ccc(NC(=O)Cn2nnc(-c3ccccc3NS(=O)(=O)c3ccc(OC)cc3)n2)cc1", "Potency": "inconclusive: 2.31 µM [inhibitor, single point]"}, {"smiles": "COc1ccc(-n2nc3c(c2NC(=O)c2ccc(S(=O)(=O)N4CCOCC4)cc2)CS(=O)(=O)C3)cc1", "Potency": "inconclusive: 3.55 µM [activator, partial curve, poor fit]"}, {"smiles": "COCC(=O)N(Cc1cc2ccc(C)c(C)c2n2nnnc12)C1CCCC1", "Potency": "inconclusive: 0.562 µM [activator, full curve, poor fit]"}, {"smiles": "Cc1cc(C)cc(NC(=O)c2cc(S(=O)(=O)NCc3ccco3)ccc2F)c1", "Potency": "inconclusive: 29.1 µM [inhibitor, single point]"}, {"smiles": "Cc1ccc(S(=O)(=O)NCC(=O)OCC(=O)NCc2cccs2)cc1", "Potency": "inconclusive: 3.16 µM [inhibitor, single point]"}, {"smiles": "CCN1CCN(S(=O)(=O)c2ccc(Cl)c(C(=O)N(C)C(c3ccccc3)c3ccccc3)c2)CC1", "Potency": "inconclusive: 35.5 µM [inhibitor, single point]"}, {"smiles": "Cn1c(CNC(=O)c2ccccc2F)nnc1SCCOc1ccccc1", "Potency": "inconclusive: 6.31 µM [inhibitor, single point]"}, {"smiles": "O=C(/C=C/c1ccc(S(=O)(=O)N2CCOCC2)cc1)NC(=S)Nc1ccc(Cl)cc1Cl", "Potency": "inconclusive: 35.5 µM [inhibitor, single point]"}, {"smiles": "c1cncc(-c2nn3c(Cn4nnc5ccccc54)nnc3s2)c1", "Potency": "active: 3.26 µM"}, {"smiles": "COc1ccc(-c2cc(C(=O)NCC(C)C)no2)cc1", "Potency": "inconclusive: 8.2 µM [inhibitor, single point]"}, {"smiles": "Cc1ccc(NC2=NCCCCC2)cc1C", "Potency": "inconclusive: 1.46 µM [inhibitor, full curve, poor fit]"}, {"smiles": "Cc1ccc(S(=O)(=O)N2CCN(C(=O)/C=C/c3ccccc3)CC2)cc1C", "Potency": "inconclusive: 25.1 µM [inhibitor, partial curve, poor fit]"}, {"smiles": "CCOc1cc(C(=O)CSc2nnc(CNc3ccc(Cl)cc3)o2)ccc1NC(=O)CC", "Potency": "inconclusive: 11.2 µM [inhibitor, partial curve, poor fit]"}, {"smiles": "Cc1cc(C)nc(N2CCC(C(=O)NCc3ccco3)CC2)n1", "Potency": "inactive"}, {"smiles": "OCCNc1nc(NCCC2=CCCCC2)nc(N2CCOCC2)n1", "Potency": "inconclusive: 0.316 µM [inhibitor, partial curve, poor fit]"}, {"smiles": "COC(=O)c1nc(NC(=O)c2ccc(C(C)(C)C)cc2)n[nH]1", "Potency": "inconclusive: 1.26 µM [activator, partial curve, poor fit]"}, {"smiles": "Cc1cc(Cl)c(OCCOCCN2CCCC(C)C2)c(Br)c1", "note": "(configuration not stated)", "Potency": "inconclusive: 10 µM [inhibitor, partial curve, poor fit]"}, {"smiles": "CCOC(=O)C1(CCSC)NC(c2ccco2)C2C(=O)N(C)C(=O)C21", "note": "(configuration not stated)", "Potency": "inconclusive: 0.58 µM [inhibitor, partial curve, poor fit]"}, {"smiles": "Cc1ccccc1NC(=O)c1cccc(C(F)(F)F)c1", "Potency": "inactive"}, {"smiles": "COc1ccccc1C(=O)Nc1ccccc1N1CCCCC1", "Potency": "inconclusive: 8.91 µM [inhibitor, partial curve]"}, {"smiles": "COc1ccc(C2C(C(=O)NCCN3CCOCC3)c3ccccc3C(=O)N2C)cc1OC", "note": "(configuration not stated)", "Potency": "inactive"}, {"smiles": "Cn1c(N)c(C(=O)COC(=O)c2ccccc2C(F)(F)F)c(=O)n(C)c1=O", "Potency": "inactive"}, {"smiles": "CCn1c(SCC(=O)Nc2nc3ccccc3s2)nc2c(c1=O)SC(C)C2", "note": "(configuration not stated)", "Potency": "inconclusive: 12.6 µM [inhibitor, partial curve]"}, {"smiles": "Cc1ccc(SCC(=O)OCC(=O)N(CCC#N)c2ccccc2)cc1C", "Potency": "inactive"}, {"smiles": "O=C(Cc1ccc(Br)cc1)Nc1cccc(-c2cn3c(n2)SCC3)c1", "Potency": "inconclusive: 1 µM [inhibitor, full curve, poor fit]"}, {"smiles": "CCn1c(=O)c2cc(C(=O)NCCc3cc(OC)ccc3OC)sc2c2ccccc21", "Potency": "inactive"}, {"smiles": "CC(=O)Nc1ccc(-c2csc(NCCc3ccccc3)n2)cc1", "Potency": "inconclusive: 35.5 µM [inhibitor, single point]"}, {"smiles": "Brc1cccc(OCCSc2ncccn2)c1", "Potency": "inconclusive: 1.26 µM [inhibitor, partial curve, poor fit]"}, {"smiles": "CC1CCC(NC(=O)c2cc(S(=O)(=O)N(C)C)ccc2N2CCCC2)CC1", "note": "(configuration not stated)", "Potency": "inactive"}, {"smiles": "CCCCCC(/C=N/Nc1ccc(S(=O)(=O)N2CCOCC2)cc1[N+](=O)[O-])=C\\c1ccccc1", "Potency": "inconclusive: 3.66 µM [inhibitor, partial curve, poor fit]"}, {"smiles": "COc1ccc(C(=O)n2cnnc2N)cc1", "Potency": "inconclusive: 3.98 µM [activator, partial curve, poor fit]"}, {"smiles": "CCN(CC)C(=O)[C@H]1CC(CC(=O)NCCN2CCOCC2)C(=O)N2CCc3c([nH]c4ccc(OC)cc34)[C@]12C", "note": "(some centres not stated)", "Potency": "inactive"}, {"smiles": "CCN1CCN(C(c2ccccc2)c2nnnn2Cc2ccccc2)CC1", "note": "(configuration not stated)", "Potency": "inconclusive: 23.1 µM [inhibitor, single point]"}, {"smiles": "Cc1ccc2nc(-c3cc(NC(=O)c4ccc5c(c4)OCCO5)ccc3Cl)oc2c1", "Potency": "inactive"}, {"smiles": "COc1ccc(C2Sc3ccccc3NC3=C2C(=O)c2ccccc23)c(OC)c1OC", "note": "(configuration not stated)", "Potency": "inconclusive: 1.78 µM [inhibitor, partial curve, poor fit]"}, {"smiles": "C=CCOc1ccc(CN(C)CC(=O)Nc2ccc3c(c2)CCC3)cc1", "Potency": "inconclusive: 25.1 µM [inhibitor, single point]"}, {"smiles": "COc1cccc2c1CCc1c-2nc2ccccc2c1C(=O)O", "Potency": "inconclusive: 22.4 µM [inhibitor, single point]"}, {"smiles": "N#Cc1c(NCCN)nc(NCc2ccccc2)c2c1CCN(Cc1ccccc1)C2", "Potency": "inconclusive: 20 µM [inhibitor, single point]"}, {"smiles": "CC1=C(C(=O)NC2CCCc3c2cnn3-c2cccc(C)c2C)OCCO1", "note": "(configuration not stated)", "Potency": "inconclusive: 2 µM [inhibitor, partial curve, poor fit]"}, {"smiles": "COc1ccc(-c2nnc(C3CCN(C(=O)c4ccccc4F)CC3)o2)cc1", "Potency": "inactive"}, {"smiles": "CC1=C(C(=O)OCc2ccc3c(c2)OCO3)C(c2ccccc2OCc2ccccc2)NC(=O)N1", "note": "(configuration not stated)", "Potency": "inconclusive: 29.1 µM [inhibitor, single point]"}, {"smiles": "CN(C(=S)NC(=O)c1ccc(Br)o1)c1ccccc1", "Potency": "inconclusive: 35.5 µM [activator, single point]"}, {"smiles": "CCc1cc2c(=O)n(-c3ccc(C)cc3)cnc2s1", "Potency": "inconclusive: 2.82 µM [activator, single point]"}, {"smiles": "O=Cc1cn(CC(O)Cn2cc(C=O)c3ccccc32)c2ccccc12", "Potency": "inconclusive: 6.31 µM [inhibitor, single point]"}, {"smiles": "COc1ccc(Cc2nnc(SCc3c(C)noc3C)n2C2CCCCC2)cc1OC", "Potency": "inconclusive: 35.5 µM [inhibitor, single point]"}, {"smiles": "CNC(=S)NC1CC2CCC(C1)N2Cc1ccccc1", "note": "(configuration not stated)", "Potency": "inconclusive: 5.17 µM [inhibitor, partial curve, poor fit]"}, {"smiles": "Cc1cc(N2CCN(Cc3nc(-c4ccc(Cl)cc4)oc3C)CC2)cc(C)n1", "Potency": "active: 3.98 µM"}, {"smiles": "C=CCN(c1ccc(C(=O)Nc2ccc(C)cc2)cc1)S(C)(=O)=O", "Potency": "inactive"}, {"smiles": "Cc1cccc2nc(COc3ccc4ccccc4c3Br)cn12", "Potency": "active: 10 µM"}, {"smiles": "O=c1cc(CN2CCN(Cc3ccccc3)CC2)c2cc3c(cc2o1)CCC3", "Potency": "inactive"}, {"smiles": "O=C(O)C1CC2CCC1CC2", "note": "(configuration not stated)", "Potency": "inconclusive: 2.24 µM [activator, full curve, poor fit]"}, {"smiles": "Cc1cc(C)n(-c2nc3ccccc3nc2N2CCN(S(=O)(=O)c3ccc4ccccc4c3)CC2)n1", "Potency": "inconclusive: 11.6 µM [inhibitor, partial curve, poor fit]"}, {"smiles": "Cc1cc(NC(=O)CSc2nnnn2C2CCCC2)no1", "Potency": "inactive"}, {"smiles": "O=C1CCCC2=C1C(c1ccc(Cl)cc1)C1C(=O)c3ccccc3C1=N2", "note": "(configuration not stated)", "Potency": "inconclusive: 20.6 µM [inhibitor, partial curve]"}, {"smiles": "COc1cccc(CC(=O)Nc2ncc(C)s2)c1", "Potency": "inconclusive: 28.2 µM [inhibitor, single point]"}, {"smiles": "Cc1ccc(CNC(=O)COC(=O)CSc2ccc(Br)cc2C)cc1", "Potency": "inconclusive: 22.4 µM [activator, single point]"}, {"smiles": "Cc1c2ccncc2c(C)c2c1[nH]c1ccccc12", "Potency": "active: 4.11 µM and active: 4.47 µM"}, {"smiles": "CC(=O)Oc1ccccc1C(=O)C=Cc1cccc([N+](=O)[O-])c1", "Potency": "inconclusive: 35.5 µM [inhibitor, single point]"}, {"smiles": "CCc1ccccc1NC(=O)Cn1c(-c2nonc2N)nc2ccccc21", "Potency": "inactive"}, {"smiles": "O=C(COc1ccccc1)Nc1nnc(-c2ccccc2Cl)o1", "Potency": "inactive"}, {"smiles": "CC[C@@]1(O)C(=O)OCc2c1cc1n(c2=O)Cc2cc3c(NC(=O)CN)cccc3nc2-1", "Potency": "inconclusive: 0.126 µM [inhibitor, full curve, poor fit]"}, {"smiles": "CCc1ccc(NC(=O)CCC(=O)Nc2nnc(C(F)(F)F)s2)cc1", "Potency": "inactive"}, {"smiles": "COc1ccc(NC(=O)C(c2ccc(Cl)cc2)C(C)C)cn1", "note": "(configuration not stated)", "Potency": "inconclusive: 8.91 µM [inhibitor, partial curve, poor fit]"}, {"smiles": "CC(C)c1ncc(C(O)c2ccccc2)n1C", "note": "(configuration not stated)", "Potency": "inconclusive: 1.26 µM [inhibitor, single point]"}, {"smiles": "Cc1c(Br)c([N+](=O)[O-])nn1C(C)C(=O)N1CCCc2ccccc21", "note": "(configuration not stated)", "Potency": "inactive"}, {"smiles": "COc1ccccc1NS(=O)(=O)c1ccc(NN=C2CCCCC2)c([N+](=O)[O-])c1", "Potency": "inconclusive: 35.5 µM [inhibitor, partial curve, poor fit]"}]}]}
